Test results published in PubChem BioAssay AID445 (National Center for Advancing Translational Sciences (NCATS), 2006).
The list shows a part of the results. Further columns of the screen follow, without active or inactive calls. Compounds called inactive in the main read-out are mostly missing here. The note in brackets gives the kind of curve behind each potency; many fits are weak.

Assay: IkB Signaling
Conditions: ABC-DLBCL IkBa-CBG/CBR dual luciferase ratio (green luciferase fused to IkBa over red control in OCI-Ly3 lymphoma cells), 4 h
How it was run: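 Luminescence ratio of IκBα-fused green versus native red beetle luciferase in OCI-Ly3 cells, 4 h post-doxycycline with compound; red signal alone, scaled from basal (0%) to zero light (-100%), flagged nonspecific or cytotoxic effects.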

[1] = measured here: control luc red channel unless noted

## O=C(COc1ccccc1)NCC(c1ccc(Cl)cc1)N1CCCCC1 (configuration not stated)
[1]
  AC50: 31.6 µM [falling, partial curve]

## Cc1cccc(CC(=O)N2CC(=O)Nc3ccc(Br)cc3C2c2ccc(F)cc2)c1 (configuration not stated)
[1]
  AC50: 10 µM [falling, partial curve]

## CC(C)N(C(=O)CSc1cn(CC(=O)N2CCCCCC2)c2ccccc12)C(C)C
[1]
  AC50: 25.1 µM [falling, single point]

## COc1cccc(/C=C/c2nc(C#N)c(N3CCC(C(N)=O)CC3)o2)c1
[1]
  AC50: 6.31 µM [falling, partial curve]

## COc1ccc(Br)cc1S(=O)(=O)Nc1cc(-c2cn3ccccc3n2)ccc1C
[1]
  AC50: 6.31 µM [rising, single point]

## Cc1ccc(C)c(-c2nnc(OCC(=O)Nc3cc(C)on3)c3ccccc23)c1
[1]
  AC50: 39.8 µM [falling, single point]

## COc1ccccc1Nc1sc(C(=O)c2ccc(F)cc2)c(N)c1S(=O)(=O)c1ccc(C)cc1
[1]
  AC50: 15.8 µM [falling, partial curve, poor fit]

## COc1ccc(CNC(=O)CCc2c(C)nc3c(c(C)nn3-c3ccccc3)c2C)cc1
[1]
  AC50: 15.8 µM [falling, partial curve]

## Cc1ccc(-n2ncc3c(Nc4cccc(Cl)c4)ncnc32)c(C)c1
[1]
  AC50: 39.8 µM [falling, single point]

## CCCCN(C)S(=O)(=O)c1ccc(C(=O)Nc2nnc(-c3cccs3)o2)cc1
[1]
  AC50: 10 µM [falling, partial curve]

## COc1cccc(-c2nn(-c3ccccc3)cc2C(=O)Nc2nccs2)c1
[1]
  AC50: 3.98 µM [falling, full curve]

## COc1cc(NC(=O)C2=CC(c3ccc(F)cc3)=NS(=O)(=O)N2C)cc(OC)c1OC
[1]
  AC50: 2.51 µM [falling, full curve]

## Nc1ccc(N2CCCCCC2)cc1
[1]
  AC50: 15.8 µM [falling, partial curve]

## O=C(CSc1nccn1Cc1ccc(F)cc1)Nc1nc2ccccc2s1
[1]
  AC50: 39.8 µM [falling, single point]

## CCN(Cc1ccccc1)C(=O)C1CCN(S(=O)(=O)c2ccc3c(c2)CCCN3C(C)=O)CC1
[1]
  AC50: 2 µM [rising, partial curve]

## COc1ccc(Cl)cc1NC(=O)c1cn(C2CCCC2)c(=O)c2c1c1ccccc1n2C
[1]
  AC50: 20 µM [falling, single point]

## O=C(NCC(c1cccs1)S(=O)(=O)c1ccccc1)c1ccc(C(F)(F)F)cc1 (configuration not stated)
[1]
  AC50: 0.0501 µM [falling, full curve, poor fit]

## O=C(Nc1ccc(F)cc1)c1ccc2c(=O)n3c(nc2c1)CCCCC3
[1]
  AC50: 31.6 µM [falling, single point]

## Cc1cccc(N(CC(=O)Nc2ccccc2C(F)(F)F)S(=O)(=O)c2ccccc2)c1C
[1]
  AC50: 25.1 µM [falling, partial curve]

## CN(C)CCNC(=O)Cn1ccc2cc(S(=O)(=O)N3CCCCCC3)ccc21
[1]
  AC50: 31.6 µM [falling, single point]

## COc1ccc(CNC(=O)CSc2ncc3c(n2)-c2ccc(Cl)cc2N(Cc2ccccc2)S3(=O)=O)cc1
[1]
  AC50: 5.01 µM [falling, partial curve, poor fit]

## Cc1cc(Cl)ccc1OCC(=O)N(Cc1ccco1)Cc1ccccc1F
[1]
  AC50: 31.6 µM [falling, single point]

## O=C(CN(c1ccccc1)S(=O)(=O)c1ccccc1)N1CCN(Cc2ccc3c(c2)OCO3)CC1
[1]
  AC50: 12.6 µM [falling, partial curve]

## COc1ccc(-c2noc(-c3ccc(N4CCCC4)c([N+](=O)[O-])c3)n2)cc1OC
[1]
  AC50: 6.31 µM [falling, partial curve]

## CCc1ccc(-n2nc(C)c3c(C(=O)N4CCN(c5ccccc5)CC4)cc(C)nc32)cc1
[1]
  AC50: 15.8 µM [falling, partial curve]

## Nc1nc(SCc2ccc(Cl)cc2)ns1
[1]
  AC50: 0.126 µM [rising, full curve]

## CCOc1cc(C2NC(=O)c3c(sc4c3CCN(C)C4)N2)ccc1OC(=O)c1ccc(Br)cc1 (configuration not stated)
[1]
  AC50: 2.51 µM [rising, full curve, poor fit]

## COc1ccc(NC(=O)c2ccco2)cc1NC(=O)C(C)(C)Oc1ccc(Cl)cc1
[1]
  AC50: 12.6 µM [falling, partial curve]

## Cc1cccc(C)c1-n1ncc(C(=O)O)c1C1CCN(C(=O)OC(C)(C)C)CC1
[1]
  AC50: 25.1 µM [falling, partial curve, poor fit]

## CCOC(=O)Cc1nnc2c(Nc3ccc(C)cc3)nc3nonc3n12
[1]
  AC50: 25.1 µM [falling, partial curve]

## COc1ccc(-c2noc(-c3ccc(N4CCOCC4)c([N+](=O)[O-])c3)n2)cc1
[1]
  AC50: 12.6 µM [falling, single point]

## CC1=C(C(=O)Nc2ccccc2C)C(c2cccs2)n2nc(SCc3ccccc3)nc2N1 (configuration not stated)
[1]
  AC50: 3.16 µM [falling, full curve]

## CCc1ccc(-n2nc(CO)c(C(=O)NCCOC)n2)cc1
[1]
  AC50: 0.631 µM [rising, full curve]

## O=C(O)c1cc(/C=N\O)ccc1OCc1ccccc1
[1]
  AC50: 20 µM [falling, partial curve]

## CCn1c(COc2ccccc2)nnc1SCC(=O)Nc1ccc2c(c1)OCCO2
[1]
  AC50: 31.6 µM [falling, partial curve]

## CC(=O)c1ccc(NC(=O)C2CCN(c3nnc(C)c4c(C)n(-c5ccccc5)nc34)CC2)cc1
[1]
  AC50: 39.8 µM [rising, single point]

## CC#C[C@]1(O)CC[C@H]2[C@@H]3CCC4=CC(=O)CCC4=C3[C@H](c3ccc(N(C)C)cc3)C[C@@]21C
[1]
  AC50: 31.6 µM [falling, partial curve]

## COc1ccc(NCc2cccn2-c2nnc(N3CCCCCC3)s2)cc1
[1]
  AC50: 39.8 µM [falling, single point]

## COc1ccc(NC(=O)CSC2=Nc3ccccc3C3=NC(CC(=O)NCCc4ccccc4)C(=O)N23)cc1 (configuration not stated)
[1]
  AC50: 2 µM [rising, partial curve]

## COc1cc(OC)c(NC(=O)CCS(=O)(=O)c2ccc3c(c2)oc(=O)n3C)cc1Cl
[1]
  AC50: 39.8 µM [falling, single point]

## Cc1ccc(NC(=O)NC2=N/C(=C(/C#N)C(=O)N3CCCC3)c3ccccc32)cc1
[1]
  AC50: 3.16 µM [falling, full curve]

## COc1ccccc1NC(=O)Cn1c(CN2CCCCC2)nc2ccccc2c1=O
[1]
  AC50: 25.1 µM [falling, partial curve]

## CCOC(=O)CCCNC(=O)COC(=O)c1cccc(C)c1O
[1]
  AC50: 7.94 µM [falling, partial curve]

## Nc1c(C(=O)c2ccccc2)oc2ccc(Br)cc12
[1]
  AC50: 2 µM [rising, partial curve] [measured here: IkB-luc green channel]

## COc1ccc(-c2nnc(NC(=O)c3ccc(S(=O)(=O)N4CCc5ccccc5C4)cc3)o2)cc1
[1]
  AC50: 25.1 µM [falling, partial curve, poor fit]

## CCOc1ccc(CCNC(=O)c2cc(=O)[nH]c3ccc(S(=O)(=O)N4CCCCC4C)cc23)cc1OCC (configuration not stated)
[1]
  AC50: 1 µM [rising, partial curve]

## COCCn1c(Cc2ccccc2)nnc1SCC(=O)NC(C)C
[1]
  AC50: 10 µM [falling, partial curve]

## Cc1ccc(-c2noc(CCC(=O)N(C)c3ccccc3F)n2)cc1
[1]
  AC50: 39.8 µM [falling, partial curve]

## Cc1ccc(CN(C(=O)COc2ccccc2Cl)c2ccccn2)o1
[1]
  AC50: 5.01 µM [rising, partial curve, poor fit]

## Cc1csc(NC(=O)c2cccc(Cn3nc(C)c(Br)c3C)c2)n1
[1]
  AC50: 10 µM [falling, partial curve]

## COc1ccc(Nc2c3c(nc4ccccc24)CCC3)cc1Cl
[1]
  AC50: 15.8 µM [falling, partial curve]

## Cc1cccc(NC(=O)Cn2c(=O)n(Cc3ccc4c(c3)OCO4)c(=O)c3oc4ccccc4c32)c1C
[1]
  AC50: 25.1 µM [falling, single point]

## COc1ccc2[nH]c(=O)c(CN(CC3CCCO3)C(=O)Nc3ccccc3)cc2c1 (configuration not stated)
[1]
  AC50: 31.6 µM [falling, partial curve]

## COc1ccc(OC)c(CNC(=O)Nc2cn(CC(C)C)c(=O)c3ccccc23)c1
[1]
  AC50: 31.6 µM [falling, single point]

## CC1=C(/C=C/C(C)=C/C=C/C(C)=C\C=O)C(C)(C)CCC1
Measured here: IkB-luc green channel
  AC50: 0.0501 µM [rising, full curve]
Measured here: control luc red channel
  AC50: 15.8 µM [falling, full curve, poor fit]

## COCCSc1nc2c([nH]c3ccccc32)c(=O)n1-c1ccc(OC)c(OC)c1
[1]
  AC50: 0.794 µM [rising, full curve]

## CCCCn1c(CNC(=O)C23CC4CC(CC(C4)C2)C3)nnc1SCC(=O)Nc1ccc(C)cc1
[1]
  AC50: 25.1 µM [falling, partial curve]

## CCOCCCN(Cc1ccco1)S(=O)(=O)c1cc2c(cc1C)NC(=O)CO2
[1]
  AC50: 0.1 µM [falling, partial curve]

## COc1ccc(-n2ncc(C(=O)Nc3cccc(C(F)(F)F)c3)c2C2CCN(C(=O)OC(C)(C)C)CC2)cc1
[1]
  AC50: 31.6 µM [falling, single point]

## Cc1ccc(C2=Nc3ccccc3N(CC(=O)NCc3ccccc3Cl)C(=O)C2)cc1C
[1]
  AC50: 20 µM [falling, single point]

## O=C(Nc1c(C(=O)N2CCN(c3ccccc3)CC2)oc2ccccc12)c1ccco1
[1]
  AC50: 25.1 µM [falling, single point]
